Results from US20090221440A1.
No constants are given. Whether binding was seen depends on the method and setting. For some of these results: Binding seen in cells or lysates may run through a third protein. Some binding calls cover weakened binding; strength is not graded here.

The chains behind the UniProt entries cited, without tags or fusion partners. Where a name states a change or a piece, a line headed by the entry shows the natural chain unless it says otherwise.
UniProt P31749: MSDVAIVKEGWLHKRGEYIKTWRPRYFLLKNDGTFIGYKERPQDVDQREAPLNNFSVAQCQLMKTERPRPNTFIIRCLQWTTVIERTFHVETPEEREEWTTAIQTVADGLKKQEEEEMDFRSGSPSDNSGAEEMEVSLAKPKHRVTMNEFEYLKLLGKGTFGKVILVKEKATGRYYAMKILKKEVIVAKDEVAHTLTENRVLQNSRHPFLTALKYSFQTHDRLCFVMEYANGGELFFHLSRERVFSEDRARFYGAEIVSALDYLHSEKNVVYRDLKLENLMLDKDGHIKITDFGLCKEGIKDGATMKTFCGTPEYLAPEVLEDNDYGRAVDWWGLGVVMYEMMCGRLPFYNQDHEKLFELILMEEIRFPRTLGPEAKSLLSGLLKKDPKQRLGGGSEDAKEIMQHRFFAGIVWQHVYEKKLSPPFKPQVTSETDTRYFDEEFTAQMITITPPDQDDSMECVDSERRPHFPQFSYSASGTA
UniProt O43707: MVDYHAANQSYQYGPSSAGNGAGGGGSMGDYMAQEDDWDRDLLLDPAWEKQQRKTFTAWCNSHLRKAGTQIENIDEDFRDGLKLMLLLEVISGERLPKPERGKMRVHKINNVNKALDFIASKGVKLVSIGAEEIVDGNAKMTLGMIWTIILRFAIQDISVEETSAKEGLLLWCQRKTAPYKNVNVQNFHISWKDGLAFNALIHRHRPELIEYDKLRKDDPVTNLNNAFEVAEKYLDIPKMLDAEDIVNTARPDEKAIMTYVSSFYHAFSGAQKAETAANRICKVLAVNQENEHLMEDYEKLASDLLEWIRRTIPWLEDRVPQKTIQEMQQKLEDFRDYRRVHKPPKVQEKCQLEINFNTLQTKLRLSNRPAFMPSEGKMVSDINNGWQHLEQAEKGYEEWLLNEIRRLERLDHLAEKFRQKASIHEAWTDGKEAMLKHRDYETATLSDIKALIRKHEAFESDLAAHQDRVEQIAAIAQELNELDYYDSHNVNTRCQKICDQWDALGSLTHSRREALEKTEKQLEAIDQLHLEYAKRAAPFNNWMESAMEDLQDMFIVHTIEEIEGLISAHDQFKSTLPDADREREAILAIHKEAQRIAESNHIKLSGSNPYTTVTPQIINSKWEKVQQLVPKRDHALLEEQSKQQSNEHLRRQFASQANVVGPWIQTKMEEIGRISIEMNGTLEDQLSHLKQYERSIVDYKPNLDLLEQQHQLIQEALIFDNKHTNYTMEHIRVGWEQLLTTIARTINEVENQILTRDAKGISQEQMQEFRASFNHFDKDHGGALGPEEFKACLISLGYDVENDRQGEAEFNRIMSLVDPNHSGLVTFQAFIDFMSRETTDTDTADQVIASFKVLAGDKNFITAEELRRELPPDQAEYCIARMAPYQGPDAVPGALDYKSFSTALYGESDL

Assays:
IFP-F[1]-AKT1 [1] = target: IFP-F[1]-AKT1 (UniProt P31749); experiment: ReMTH screen; table of potential novel interaction partners of AKT1
IFP-F[1]-AKT1 [2] = target: IFP-F[1]-AKT1 (UniProt P31749); experiment: IFP fragment complementation (PCA), fluorescence microscopy of clone No. 5
IFP-F[1]-AKT1 [3] = target: IFP-F[1]-AKT1 (UniProt P31749); experiment: co-immunoprecipitation from RIPA lysate of clone No. 5, IP anti-AKT1, western blot anti-GFP
IFP-F[1]-AKT1 [4] = target: IFP-F[1]-AKT1 (UniProt P31749); experiment: ReMTH screen: fluorescent cells sorted after retroviral IFP-F[2] tagging in IFP-F[1]-AKT1 HeLa Tet-on cells

Measured: binding

IFP-F[2]-ACTN4 fusion of clone No. 5 (from UniProt O43707 53-911)
binds: all assays above
